Test results as given in paper PMC9249237.
Results are given in words; binding and its absence hold for the method and conditions named. Binding seen in cells or lysates may run through a third protein. Some entries that bind do so weakly or less than the wild type. For part of these data: Tags and fused reporters may be left off the sequences shown.

The chains behind the UniProt entries cited, without tags or fusion partners.
UniProt O42145: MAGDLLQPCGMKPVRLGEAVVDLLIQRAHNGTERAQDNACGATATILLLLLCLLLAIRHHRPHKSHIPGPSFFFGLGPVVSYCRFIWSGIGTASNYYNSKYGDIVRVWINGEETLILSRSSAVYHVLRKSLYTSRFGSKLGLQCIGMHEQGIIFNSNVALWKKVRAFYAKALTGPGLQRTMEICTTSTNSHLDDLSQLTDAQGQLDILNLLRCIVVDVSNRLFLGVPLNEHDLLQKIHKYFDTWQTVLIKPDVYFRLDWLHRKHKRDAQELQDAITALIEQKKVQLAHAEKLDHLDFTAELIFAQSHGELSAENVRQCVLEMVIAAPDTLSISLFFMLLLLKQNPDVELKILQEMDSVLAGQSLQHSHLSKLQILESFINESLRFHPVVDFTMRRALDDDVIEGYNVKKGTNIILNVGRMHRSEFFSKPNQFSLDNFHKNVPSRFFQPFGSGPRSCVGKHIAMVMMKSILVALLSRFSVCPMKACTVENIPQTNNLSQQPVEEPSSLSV

Legend:
Assay in all cases: co-IP; EPC cells co-transfected with tagged plasmids for 24 h; RIPA lysis buffer (1% NP-40, 50 mM Tris-HCl pH 7.5, 150 mM NaCl, 1 mM EDTA, 0.25% sodium deoxycholate); anti-Flag/HA/Myc affinity gel overnight at 4°C; three washes with lysis buffer; immunoblot; in Fig 7I cells first transfected with si-atg14#1 or si-NC; in Fig 7E MITA co-expressed
[1] = target: T1, MITA-Myc (zebrafish mediator of IRF3 activation) (zebrafish) (UniProt E7F4N7)
T1 sequence: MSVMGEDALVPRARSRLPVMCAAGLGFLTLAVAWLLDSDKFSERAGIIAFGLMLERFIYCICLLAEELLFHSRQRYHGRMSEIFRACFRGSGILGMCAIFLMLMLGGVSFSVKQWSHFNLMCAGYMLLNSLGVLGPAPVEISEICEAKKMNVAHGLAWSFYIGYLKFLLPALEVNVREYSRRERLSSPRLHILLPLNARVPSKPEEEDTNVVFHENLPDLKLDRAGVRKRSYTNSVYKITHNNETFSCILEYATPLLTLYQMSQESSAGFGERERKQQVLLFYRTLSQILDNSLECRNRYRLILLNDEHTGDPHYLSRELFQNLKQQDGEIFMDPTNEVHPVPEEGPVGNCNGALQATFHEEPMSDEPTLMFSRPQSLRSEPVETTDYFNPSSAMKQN

[2] = target: T2, MITA-C (MITA truncation lacking the N-terminal/ER localization region, containing the C-terminal 222 amino acids) (zebrafish) (UniProt E7F4N7)
T2 sequence: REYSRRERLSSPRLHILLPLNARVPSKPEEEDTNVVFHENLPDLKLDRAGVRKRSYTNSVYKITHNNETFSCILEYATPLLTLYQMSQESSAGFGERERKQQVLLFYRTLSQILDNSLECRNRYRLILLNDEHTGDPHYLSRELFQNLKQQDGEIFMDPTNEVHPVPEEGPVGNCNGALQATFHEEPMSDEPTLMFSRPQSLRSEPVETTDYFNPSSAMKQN

[3] = target: T3, wild-type MITA (construct of the anti-HA co-IP of Fig 4K) (zebrafish) (UniProt E7F4N7)
T3 sequence: T1 sequence

binding [1]	binding [2]	binding [3]	Substance
binds			Cyp19a1a-Flag (zebrafish cytochrome P450, family 19, subfamily A, polypeptide 1a) (from UniProt O42145 1-509)
	no binding	binds	Cyp19a1a (construct of the anti-HA co-IP of Fig 4K) (from UniProt O42145 1-509)
